From article PMC5462965 come the findings set out here.

The target in one assay is T1, His-neuritin (human) (UniProt Q9NPD7).
T1 sequence: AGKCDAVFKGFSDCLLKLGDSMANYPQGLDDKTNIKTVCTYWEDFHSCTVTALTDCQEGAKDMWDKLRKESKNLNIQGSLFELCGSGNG
The assay can be described thus: co-IP; lysates of 293T cells overexpressing His-neuritin and Flag-NEURL1; IP with anti-Flag and blot with anti-His, and the reverse; lysis and wash buffer 150 mM NaCl, 1% Triton-X 100, 0.5% sodium deoxycholate, Tris-HCl pH 7.5; pcDNA3.1 empty vector as control.

The target in a further assay is T2, Flag-NEURL1 (human) (UniProt O76050).
T2 sequence: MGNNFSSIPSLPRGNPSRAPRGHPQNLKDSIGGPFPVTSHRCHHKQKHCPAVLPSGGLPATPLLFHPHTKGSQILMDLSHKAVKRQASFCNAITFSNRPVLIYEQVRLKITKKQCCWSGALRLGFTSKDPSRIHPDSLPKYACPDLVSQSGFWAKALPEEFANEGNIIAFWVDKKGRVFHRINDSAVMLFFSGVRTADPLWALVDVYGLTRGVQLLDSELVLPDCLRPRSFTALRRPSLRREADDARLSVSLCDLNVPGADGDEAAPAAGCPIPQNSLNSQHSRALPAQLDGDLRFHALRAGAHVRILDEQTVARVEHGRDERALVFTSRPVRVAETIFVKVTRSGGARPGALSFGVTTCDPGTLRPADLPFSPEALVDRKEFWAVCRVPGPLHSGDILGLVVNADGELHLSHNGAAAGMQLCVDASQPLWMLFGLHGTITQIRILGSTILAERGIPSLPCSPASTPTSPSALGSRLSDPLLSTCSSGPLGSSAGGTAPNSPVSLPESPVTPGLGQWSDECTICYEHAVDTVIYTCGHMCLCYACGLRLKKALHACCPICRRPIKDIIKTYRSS
Described as above.

Assay [1] has as its target T3, endogenous NEURL1 of SH-SY5Y cells (human (endogenous in SH-SY5Y)) (UniProt O76050).
T3 sequence: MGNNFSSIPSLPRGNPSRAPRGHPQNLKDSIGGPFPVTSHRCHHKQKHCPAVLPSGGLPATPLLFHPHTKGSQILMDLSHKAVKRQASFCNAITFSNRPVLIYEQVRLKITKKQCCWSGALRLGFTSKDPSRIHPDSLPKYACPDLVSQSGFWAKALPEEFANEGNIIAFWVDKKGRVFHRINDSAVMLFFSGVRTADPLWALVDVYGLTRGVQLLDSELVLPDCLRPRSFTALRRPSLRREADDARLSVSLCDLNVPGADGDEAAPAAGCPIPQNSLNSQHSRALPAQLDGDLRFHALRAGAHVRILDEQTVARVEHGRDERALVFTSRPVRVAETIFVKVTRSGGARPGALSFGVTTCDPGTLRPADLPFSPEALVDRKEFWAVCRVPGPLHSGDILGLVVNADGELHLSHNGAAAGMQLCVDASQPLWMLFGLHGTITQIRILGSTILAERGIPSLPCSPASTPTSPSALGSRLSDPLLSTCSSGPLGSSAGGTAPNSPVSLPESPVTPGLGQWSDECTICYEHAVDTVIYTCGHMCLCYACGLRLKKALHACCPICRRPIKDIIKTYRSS
The assay can be described thus: co-IP; endogenous proteins of SH-SY5Y cells; IP with anti-NEURL1, blot for neuritin; IgG as control.

These are yes or no findings as the source states them, for the method shown. Binding seen in cells or lysates may run through a third protein. Some results given as binding are weak or reduced against the parent protein; the word gives no strength. For part of these data: Sequences can lack the tags named with a protein.

B1: Flag-NEURL1 (protein, UniProt O76050 1-574)
chain: MGNNFSSIPSLPRGNPSRAPRGHPQNLKDSIGGPFPVTSHRCHHKQKHCPAVLPSGGLPATPLLFHPHTKGSQILMDLSHKAVKRQASFCNAITFSNRPVLIYEQVRLKITKKQCCWSGALRLGFTSKDPSRIHPDSLPKYACPDLVSQSGFWAKALPEEFANEGNIIAFWVDKKGRVFHRINDSAVMLFFSGVRTADPLWALVDVYGLTRGVQLLDSELVLPDCLRPRSFTALRRPSLRREADDARLSVSLCDLNVPGADGDEAAPAAGCPIPQNSLNSQHSRALPAQLDGDLRFHALRAGAHVRILDEQTVARVEHGRDERALVFTSRPVRVAETIFVKVTRSGGARPGALSFGVTTCDPGTLRPADLPFSPEALVDRKEFWAVCRVPGPLHSGDILGLVVNADGELHLSHNGAAAGMQLCVDASQPLWMLFGLHGTITQIRILGSTILAERGIPSLPCSPASTPTSPSALGSRLSDPLLSTCSSGPLGSSAGGTAPNSPVSLPESPVTPGLGQWSDECTICYEHAVDTVIYTCGHMCLCYACGLRLKKALHACCPICRRPIKDIIKTYRSS
As to B1, in the assay with His-neuritin (human), the binding result is given as “binds”.

B2: His-neuritin (protein, UniProt Q9NPD7 28-116)
chain: AGKCDAVFKGFSDCLLKLGDSMANYPQGLDDKTNIKTVCTYWEDFHSCTVTALTDCQEGAKDMWDKLRKESKNLNIQGSLFELCGSGNG
Turning to B2, the binding entry in the assay with Flag-NEURL1 (human) is listed as “binds”.

B3: endogenous neuritin of SH-SY5Y cells (protein, UniProt Q9NPD7 28-116)
chain: AGKCDAVFKGFSDCLLKLGDSMANYPQGLDDKTNIKTVCTYWEDFHSCTVTALTDCQEGAKDMWDKLRKESKNLNIQGSLFELCGSGNG
For the molecule B3, the binding result in assay [1] is on record as “binds”.
